Patent US20090280153A1, “electrical devices, anti-scarring agents, and therapeutic compositions” (Angiotech International AG, priority 2005, published 2009)
Some entries share one result that the patent states for a list of compounds. At least one structure is not confirmed: it was looked up by name or label, or the drawing left a doubt. Some ranges recur; such a range may be that of the whole group of compounds.

System: fibroblasts and/or smooth muscle cells, macrophages
Test: assays described herein (in vitro screening assays for anti-fibrosis agents)
Assay type: cell-based
Conditions: approximately; high potency (1-100) or mid-potency (100-500) agents; read-out: IC50 range in the assays described herein
From the text: Agents which may inhibit fibrosis or gliosis may be readily identified based upon in vitro and in vivo (animal) models, such as those provided in Examples 39-52. Depending on their mechanisms, various agents may be effective in some, but not all screening assays for anti-fibrosis or anti-gliosis agents, and different agents may be effective in different screening assays. Agents which inhibit fibrosis can be identified through in vivo models including inhibition of intimal hyperplasia development in the rat balloon carotid artery model (Examples 44 and 61). The assays set forth in Examples 43 and 51 may be used to determine whether an agent is able to inhibit cell proliferation in fibroblasts and/or smooth muscle cells. In one aspect of the invention, the agent has an IC50 for inhibition of cell proliferation within a range of about 10^−6 to about 10^−10 M. In certain embodiments, the agent may have an IC50 for inhibition of cell proliferation of less than about 10,000 nM; or less than about 1000 nM; or less than about 100 nM. The assay set forth in Example 47 may be used to determine whether an agent may inhibit migration of fibroblasts and/or smooth muscle cells. In one aspect of the invention, the agent has an IC50 for inhibition of cell migration within a range of about 10^−6 to about 10^−9M. […]

C/C1=C\[C@H](C)C[C@H](C)OC(=O)C[C@H](c2ccc(O)cc2)NC(=O)[C@@H](Cc2c(Br)[nH]c3ccccc23)N(C)C(=O)[C@H](C)NC(=O)[C@@H](C)C1 [jasplakinolide]
IC50: 1 to 100 nM

C[C@H]1CCC/C=C/[C@@H]2C[C@H](O)C[C@H]2[C@H](O)/C=C/C(=O)O1 [brefeldin A]
IC50: 1 to 100 nM
